{
  "sequences": {"note": "Protein sequences, listed by entry. Tags and fused reporters are not part of them. Lines headed by an entry give the natural chain unless they say otherwise; changes in a name come on top.", "UniProt Q9UIJ5": "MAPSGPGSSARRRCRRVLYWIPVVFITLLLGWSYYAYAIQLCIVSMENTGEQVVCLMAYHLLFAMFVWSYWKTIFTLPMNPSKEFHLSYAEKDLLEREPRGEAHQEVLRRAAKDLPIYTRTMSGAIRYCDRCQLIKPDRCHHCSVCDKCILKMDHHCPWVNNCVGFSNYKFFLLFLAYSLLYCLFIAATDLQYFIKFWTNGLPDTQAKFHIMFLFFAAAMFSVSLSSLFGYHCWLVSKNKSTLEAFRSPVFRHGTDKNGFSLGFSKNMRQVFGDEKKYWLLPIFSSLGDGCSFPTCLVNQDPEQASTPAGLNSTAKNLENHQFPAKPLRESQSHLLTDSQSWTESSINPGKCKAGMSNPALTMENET", "UniProt Q07065": "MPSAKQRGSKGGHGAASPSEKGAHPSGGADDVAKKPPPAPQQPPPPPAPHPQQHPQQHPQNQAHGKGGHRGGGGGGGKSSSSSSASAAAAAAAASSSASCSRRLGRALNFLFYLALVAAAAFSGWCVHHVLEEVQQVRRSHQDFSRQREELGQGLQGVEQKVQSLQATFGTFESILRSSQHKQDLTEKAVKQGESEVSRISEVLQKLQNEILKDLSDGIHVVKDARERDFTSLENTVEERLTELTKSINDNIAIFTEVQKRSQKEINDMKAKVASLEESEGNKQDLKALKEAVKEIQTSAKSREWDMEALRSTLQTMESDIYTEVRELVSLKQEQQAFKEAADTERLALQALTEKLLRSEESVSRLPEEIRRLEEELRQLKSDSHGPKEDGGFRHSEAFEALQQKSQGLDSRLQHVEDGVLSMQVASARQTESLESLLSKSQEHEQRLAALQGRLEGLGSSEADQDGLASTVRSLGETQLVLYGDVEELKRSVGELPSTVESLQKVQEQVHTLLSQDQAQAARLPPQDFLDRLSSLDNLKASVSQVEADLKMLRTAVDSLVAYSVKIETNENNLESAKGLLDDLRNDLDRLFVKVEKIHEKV"},
  "source": "patent US20110244493A1",
  "about": "(COMMONWEALTH MEDICAL COLLEGE, published 2011)",
  "biological_target": "CFP-tagged DHHC2 (Homo sapiens) (UniProt Q9UIJ5)",
  "experiment": "co-immunoprecipitation from HeLa lysates with anti-GFP mAb, Western blot with anti-CKAP4 antibody",
  "note": "These are yes or no findings as the source states them, for the method shown. In cells and extracts the contact can be indirect. Some results given as binding are weak or reduced against the parent protein; the word gives no strength.",
  "data": [
    {"substance": "cytoskeletal associated protein 4 (CKAP4), endogenous in HeLa or normal bladder epithelial cells (from UniProt Q07065 1-602) (receptor)", "values": [
      {"measurement": "binding", "value": "binds"}
    ]}
  ]
}
